In PMC7381282:

Target: flag-pig-HSPA8 (pig)
Assay: co-IP; 293T cells cotransfected; flag-tagged HSPA8 immunoprecipitated with flag antibody, Sepharose A/G beads; Western blot with anti-flag and anti-GFP

B1: EGFP-C3-M41-RBD (domain or fragment, UniProt P12651 19-272)
chain: ALYDSSSYVYYYQSAFRPPNGWHLHGGAYAVVNISSESNNAGSSPGCIVGTIHGGRVVNASSIAMTAPSSGMAWSSSQFCTAHCNFSDTTVFVTHCYKYDGCPITGMLQKNFLRVSAMKNGQLFYNLTVSVAKYPTFKSFQCVNNLTSVYLNGDLVYTSNETTDVTSAGVYFKAGGPITYKVMRKVKALAYFVNGTAQDVILCDGSPRGLLACQYNTGNFSDGFYPFINSSLVKQKFIVYRENSVNTTFTLHNF
- binding: binds

No constants are given. Whether binding was seen depends on the method and setting. Binding seen in cells or lysates may run through a third protein. Binding can be weak; no strength is given. Where a sequence is shown, tags or fusion partners need not be part of it.
